No constants are given. Whether binding was seen depends on the method and setting. Some binding calls cover weakened binding; strength is not graded here.
T1: sheep IL-13 (sheep) (UniProt Q0PW91)
T1 sequence: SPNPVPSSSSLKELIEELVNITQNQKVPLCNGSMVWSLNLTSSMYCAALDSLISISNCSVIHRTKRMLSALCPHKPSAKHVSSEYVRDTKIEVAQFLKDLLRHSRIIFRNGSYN


Experiments:
[1] = biological target: T1, sheep IL-13 (sheep); test: competition ELISA: test species IL-13 against biotinylated human IL-13 for binding to IL13-0001
[2] = biological target: T1, sheep IL-13 (sheep); test: ELISA: competition with biotinylated human IL-13 for binding to IL13-0001
[3] = biological target: cynomolgus monkey IL-12 (cynomolgus monkey); test: SPR 37°C, antibody captured by anti-human Fc

Binder	binding [1]	binding [2]	binding [3]
IL13-0001 (antibody, human IgG1, kappa, V domains shown) VH: EVQLVESGGGLVQPGGSLRLSCAASGFTFSSYAMSWVRQAPGKGLEWVASISSGDTTYYPDSVKGRFTISRDNAKNSLYLQMNSLRAEDTAVYYCARNEGYYFGLTLWGQGTLVTVSS VL: DIQMTQSPSSLSASVGDRVTITCKASESVDHFGWSLVHWYQQKPGKAPKLLIYRASNLESGVPSRFSGSGSGTDFTLTISSLQPEDFATYYCQQSNEDPWTFGGGTKVEIKR	binds	binds	
p40-0003 (antibody, human IgG1, kappa, V domains shown) VH: EVQLVQSGAEVKKPGESLKISCKGSGYSFTTYWLGWVRQMPGKGLDWIGIMSPVDSDIRYSPSFQGQVTMSVDKSITTAYLQWNSLKASDTAMYYCARRRPGQGYFDFWGQGTLVTVSS VL: DIQMTQSPSSLSASVGDRVTITCRASQGISSWLAWYQQKPEKAPKSLIYAASSLQSGVPSRFSGSGSGTDFTLTISSLQPEDFATYYCQQYNIYPYTFGQGTKLEIKR			binds
